Test results as given in paper PMC6329795.
No constants are given. Whether binding was seen depends on the method and setting. In cells and extracts the contact can be indirect. A yes stands for co-enrichment or nearness to the bait. Other partners may have been found. Sequences can lack the tags named with a protein.

How the values were obtained:
Test in all cases: proximity labelling; BioID in vivo: C-terminal BirA* fusions conditionally expressed in T. brucei, biotinylation induced for 24 h, labelled proteins purified and analysed by LC-MS/MS; estimated 10 nm labelling range
[1] = biological target: T1, GRBC2 fusion with BirA* biotin ligase (Trypanosoma brucei) (UniProt B6SBL9)
T1 sequence: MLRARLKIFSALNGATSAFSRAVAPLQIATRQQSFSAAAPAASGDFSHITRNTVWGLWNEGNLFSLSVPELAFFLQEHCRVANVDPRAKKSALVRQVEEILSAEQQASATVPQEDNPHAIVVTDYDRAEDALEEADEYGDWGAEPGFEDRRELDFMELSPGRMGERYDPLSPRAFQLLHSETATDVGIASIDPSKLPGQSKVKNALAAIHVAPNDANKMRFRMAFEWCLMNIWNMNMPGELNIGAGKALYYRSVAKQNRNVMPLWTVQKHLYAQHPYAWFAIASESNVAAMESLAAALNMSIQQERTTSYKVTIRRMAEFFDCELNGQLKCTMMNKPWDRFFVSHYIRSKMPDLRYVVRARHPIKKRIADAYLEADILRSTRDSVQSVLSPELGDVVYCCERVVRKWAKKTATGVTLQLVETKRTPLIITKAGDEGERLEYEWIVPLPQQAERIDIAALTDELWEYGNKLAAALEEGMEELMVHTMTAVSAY

[2] = biological target: T2, KPAP1 fusion with BirA* biotin ligase (Trypanosoma brucei) (UniProt B3FB38)
T2 sequence: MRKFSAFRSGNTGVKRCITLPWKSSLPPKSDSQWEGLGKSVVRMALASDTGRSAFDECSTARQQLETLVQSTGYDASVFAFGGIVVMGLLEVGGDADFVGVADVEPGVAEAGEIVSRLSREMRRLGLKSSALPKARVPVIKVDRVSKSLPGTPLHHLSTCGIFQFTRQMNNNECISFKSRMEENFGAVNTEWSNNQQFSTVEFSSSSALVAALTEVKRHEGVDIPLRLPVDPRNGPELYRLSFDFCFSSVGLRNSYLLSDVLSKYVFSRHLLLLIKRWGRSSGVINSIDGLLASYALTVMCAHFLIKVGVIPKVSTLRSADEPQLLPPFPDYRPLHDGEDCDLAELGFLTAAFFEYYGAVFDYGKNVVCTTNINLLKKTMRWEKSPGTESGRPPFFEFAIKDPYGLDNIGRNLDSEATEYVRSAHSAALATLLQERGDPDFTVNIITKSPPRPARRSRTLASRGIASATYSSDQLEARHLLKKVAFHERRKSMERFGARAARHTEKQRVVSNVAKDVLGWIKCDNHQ

[3] = biological target: T3, MERS1 fusion with BirA* biotin ligase (Trypanosoma brucei) (UniProt B6SBM0)
T3 sequence: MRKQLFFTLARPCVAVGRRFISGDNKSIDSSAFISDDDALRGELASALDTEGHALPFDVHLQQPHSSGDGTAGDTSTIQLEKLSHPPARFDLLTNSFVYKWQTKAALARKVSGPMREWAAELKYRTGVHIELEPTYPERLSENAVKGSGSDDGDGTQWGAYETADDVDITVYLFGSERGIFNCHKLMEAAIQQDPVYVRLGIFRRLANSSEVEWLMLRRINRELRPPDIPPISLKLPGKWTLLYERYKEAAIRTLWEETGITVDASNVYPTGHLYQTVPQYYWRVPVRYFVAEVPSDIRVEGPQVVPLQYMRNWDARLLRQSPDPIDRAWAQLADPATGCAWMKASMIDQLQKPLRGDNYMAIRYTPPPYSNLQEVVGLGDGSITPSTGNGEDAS

Row | binding [2] | Substance | binding [1] | binding [3]
1 | binds | subunit P3 of the polyadenylation mediator module (PAMC) | – | –
2 | binds | subunit P4 of the polyadenylation mediator module (PAMC) | – | –

Row | Substance | binding [2] | binding [1] | binding [3]
3 | MRP2 (MRP1/2 RNA chaperone complex) (Trypanosoma brucei) | binds | binds | binds
